Results published in PMC9856783, “Identification and Characterization of Aptamers Targeting Ovarian Cancer Biomarker Human Epididymis Protein 4 for the Application in Urine”.

Target: T1, Human epididymis protein 4 (HE4) (human) (UniProt Q14508)
T1 sequence (looked up, limits assumed): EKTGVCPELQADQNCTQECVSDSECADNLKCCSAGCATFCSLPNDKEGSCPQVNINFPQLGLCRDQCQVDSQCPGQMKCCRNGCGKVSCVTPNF
Test: thermofluorimetric analysis (SYBR Gold)
Conditions: 1/125 artificial urine, 100 nM DNA, 0-800 nM HE4, 1/125 diluted artificial urine, 1x SYBR Gold, protein buffer, protein details: 6xHis, label: SYBR Gold dye (non-covalent), single-stranded DNA

Sequence | Kd (Discussion prints error as 3, commercial …) [nM] | Kd (commercial protein) [nM]
TCGCACATTCCGCTTCTACCCATCAATCAGCATACCCACCATGTACGTCCCGTAAGTCCGTGTGTGCGAA [AHE3] | 127 | 
TCGCACATTCCGCTTCTACCCCCAACCAACGTCTATACTTCCCCAACCTCCGTAAGTCCGTGTGTGCGAA [AHE1] |  | 87

The exact form of at least one protein or probe is not confirmed. Tags and fusion partners may be left off the protein sequences shown.
